According to paper PMC2980493:
No constants are given. Whether binding was seen depends on the method and setting. In cells and extracts the contact can be indirect. Some binding calls cover weakened binding; strength is not graded here.

Sequences of proteins named here, by UniProt entry; tags and fusion partners are left off. A change or cut given only in a name is not applied to a line headed by its entry. A line that says so, or that is headed by a name, gives the form on record, which may keep a tag or linker. Residues count along the entry.
UniProt P48432: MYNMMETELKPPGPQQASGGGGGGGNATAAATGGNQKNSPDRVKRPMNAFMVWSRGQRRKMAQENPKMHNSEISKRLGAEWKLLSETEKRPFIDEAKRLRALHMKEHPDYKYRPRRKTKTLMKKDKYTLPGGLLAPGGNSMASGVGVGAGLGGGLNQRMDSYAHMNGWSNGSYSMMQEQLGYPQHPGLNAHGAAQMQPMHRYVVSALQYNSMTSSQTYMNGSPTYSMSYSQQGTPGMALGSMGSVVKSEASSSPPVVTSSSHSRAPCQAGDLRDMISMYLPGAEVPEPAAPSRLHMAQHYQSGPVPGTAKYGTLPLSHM
Flag-Sox2-(1-180): residues 1-180 of P48432
Flag-Sox2-(1-123): residues 1-123 of P48432
Flag-Sox2-HMG (P48432, form named): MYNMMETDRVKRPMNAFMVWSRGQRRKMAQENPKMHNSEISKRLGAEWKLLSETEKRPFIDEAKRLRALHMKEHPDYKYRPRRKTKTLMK
UniProt Q8BX22: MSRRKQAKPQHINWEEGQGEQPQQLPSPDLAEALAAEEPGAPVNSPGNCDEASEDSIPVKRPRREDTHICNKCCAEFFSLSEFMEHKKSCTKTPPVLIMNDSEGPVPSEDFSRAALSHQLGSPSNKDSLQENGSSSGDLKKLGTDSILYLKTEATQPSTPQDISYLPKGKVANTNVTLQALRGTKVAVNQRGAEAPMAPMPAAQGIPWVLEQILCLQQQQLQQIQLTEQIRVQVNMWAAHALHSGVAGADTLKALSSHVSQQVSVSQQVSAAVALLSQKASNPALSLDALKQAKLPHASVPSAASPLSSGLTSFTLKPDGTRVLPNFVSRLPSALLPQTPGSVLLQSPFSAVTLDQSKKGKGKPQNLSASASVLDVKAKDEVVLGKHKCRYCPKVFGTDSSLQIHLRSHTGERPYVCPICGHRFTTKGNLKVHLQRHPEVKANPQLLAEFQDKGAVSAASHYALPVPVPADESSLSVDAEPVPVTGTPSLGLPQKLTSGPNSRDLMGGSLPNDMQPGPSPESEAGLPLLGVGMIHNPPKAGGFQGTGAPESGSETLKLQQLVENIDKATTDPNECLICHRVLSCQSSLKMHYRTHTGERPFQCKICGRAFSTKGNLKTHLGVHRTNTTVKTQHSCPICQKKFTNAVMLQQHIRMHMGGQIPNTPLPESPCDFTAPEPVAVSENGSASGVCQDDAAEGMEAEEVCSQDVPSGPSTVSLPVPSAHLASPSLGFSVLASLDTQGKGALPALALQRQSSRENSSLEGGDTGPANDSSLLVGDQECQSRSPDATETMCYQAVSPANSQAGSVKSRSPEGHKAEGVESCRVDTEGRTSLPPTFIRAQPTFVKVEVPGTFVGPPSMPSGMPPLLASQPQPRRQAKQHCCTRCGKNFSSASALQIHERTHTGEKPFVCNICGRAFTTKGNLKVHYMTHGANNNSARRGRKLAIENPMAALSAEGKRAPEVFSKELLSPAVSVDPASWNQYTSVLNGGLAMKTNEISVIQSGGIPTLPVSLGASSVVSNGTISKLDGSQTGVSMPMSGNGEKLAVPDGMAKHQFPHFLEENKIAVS
UniProt Q92769: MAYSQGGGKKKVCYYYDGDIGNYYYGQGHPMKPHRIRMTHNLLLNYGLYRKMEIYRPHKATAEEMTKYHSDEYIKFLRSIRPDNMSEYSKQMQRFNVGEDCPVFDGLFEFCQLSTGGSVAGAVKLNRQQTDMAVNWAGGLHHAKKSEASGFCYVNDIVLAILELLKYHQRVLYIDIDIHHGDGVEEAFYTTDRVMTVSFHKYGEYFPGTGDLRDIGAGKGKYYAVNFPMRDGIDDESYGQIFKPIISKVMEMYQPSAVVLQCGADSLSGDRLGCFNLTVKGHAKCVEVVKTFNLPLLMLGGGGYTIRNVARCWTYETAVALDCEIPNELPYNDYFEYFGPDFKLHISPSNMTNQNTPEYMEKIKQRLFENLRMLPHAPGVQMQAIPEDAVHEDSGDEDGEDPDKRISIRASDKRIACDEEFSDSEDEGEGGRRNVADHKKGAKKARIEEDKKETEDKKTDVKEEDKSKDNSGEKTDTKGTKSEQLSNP
UniProt O09106: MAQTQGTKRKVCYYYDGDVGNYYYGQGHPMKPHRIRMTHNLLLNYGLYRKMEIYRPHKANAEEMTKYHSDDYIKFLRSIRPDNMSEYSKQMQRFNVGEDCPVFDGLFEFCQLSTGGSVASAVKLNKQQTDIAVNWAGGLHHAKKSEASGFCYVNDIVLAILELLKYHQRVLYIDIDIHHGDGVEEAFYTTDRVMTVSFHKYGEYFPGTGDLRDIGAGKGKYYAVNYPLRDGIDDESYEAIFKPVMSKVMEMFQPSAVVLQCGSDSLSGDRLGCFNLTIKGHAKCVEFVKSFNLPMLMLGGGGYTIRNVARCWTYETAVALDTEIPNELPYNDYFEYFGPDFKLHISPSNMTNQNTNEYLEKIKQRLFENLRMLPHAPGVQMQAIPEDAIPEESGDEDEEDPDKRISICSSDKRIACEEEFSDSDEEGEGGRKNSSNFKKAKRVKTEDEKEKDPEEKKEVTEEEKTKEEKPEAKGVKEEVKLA

Key:
[1] = target: Flag-Sox2-HMG (UniProt P48432); experiment: co-IP; 293T cells transiently transfected with both partners; nuclear extracts (NE-PER kit) 1 day later; Flag-Sox2 constructs precipitated on anti-Flag M2-beads; eluates probed by western blot
[2] = target: Flag-Sox2 (UniProt P48432); experiment: as above
[3] = target: Flag-Sox2-(1-123) (UniProt P48432); experiment: as above
[4] = target: Flag-Sox2 (UniProt P48432); experiment: co-IP; 293T cells transiently transfected with Flag-Sox2 constructs only; endogenous HDAC2; nuclear extracts, anti-Flag M2-beads, western blot
[5] = target: Flag-Sox2-(1-123) (UniProt P48432); experiment: as above
[6] = target: Flag-Sox2-HMG (UniProt P48432); experiment: as above
[7] = target: Flag-Sox2-(1-180) (UniProt P48432); experiment: co-IP; 293T cells transiently transfected with both partners; nuclear extracts (NE-PER kit) 1 day later; Flag-Sox2 constructs precipitated on anti-Flag M2-beads; eluates probed by western blot

binding [1]	binding [2]	binding [3]	binding [4]	binding [5]	binding [6]	binding [7]	Substance
binds	–	–	–	–	–	–	GFP-Sox2 (from UniProt P48432 1-319)
–	binds	binds	–	–	–	–	Sall4 (from UniProt Q8BX22 1-1067)
–	–	–	binds	binds	binds	–	endogenous HDAC2 (from UniProt Q92769 1-488) (enzyme)
binds	binds	binds	–	–	–	binds	HDAC1 (from UniProt O09106 1-482) (enzyme)
